Assay results from article PMC7352350.
Results are given in words; binding and its absence hold for the method and conditions named. Some binding calls cover weakened binding; strength is not graded here.

Protein sequences, listed by entry. Tags and fused reporters are not part of them. Lines headed by an entry give the natural chain unless they say otherwise; changes in a name come on top. Chains listed by the source or under a name are the forms on record and can include a tag or linker. Residues count along the entry.
UniProt P14780: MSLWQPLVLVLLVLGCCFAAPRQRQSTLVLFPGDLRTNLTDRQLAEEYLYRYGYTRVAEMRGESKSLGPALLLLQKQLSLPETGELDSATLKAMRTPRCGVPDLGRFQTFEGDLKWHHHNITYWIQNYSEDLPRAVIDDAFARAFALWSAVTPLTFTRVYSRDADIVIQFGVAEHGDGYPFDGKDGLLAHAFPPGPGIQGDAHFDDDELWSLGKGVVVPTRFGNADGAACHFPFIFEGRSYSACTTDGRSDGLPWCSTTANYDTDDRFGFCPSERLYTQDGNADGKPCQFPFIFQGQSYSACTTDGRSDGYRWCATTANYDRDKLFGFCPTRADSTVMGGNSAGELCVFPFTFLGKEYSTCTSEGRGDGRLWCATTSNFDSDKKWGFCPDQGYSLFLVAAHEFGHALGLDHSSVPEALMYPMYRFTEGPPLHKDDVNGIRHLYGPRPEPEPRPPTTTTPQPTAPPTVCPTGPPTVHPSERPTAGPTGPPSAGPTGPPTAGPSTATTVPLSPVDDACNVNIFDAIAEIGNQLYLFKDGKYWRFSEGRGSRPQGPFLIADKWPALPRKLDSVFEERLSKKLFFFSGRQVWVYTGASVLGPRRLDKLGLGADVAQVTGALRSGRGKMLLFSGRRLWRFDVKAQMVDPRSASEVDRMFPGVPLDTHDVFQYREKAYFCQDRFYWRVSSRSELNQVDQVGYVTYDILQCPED
recombinant proMMP-9 lacking the FnII module (P14780, form named): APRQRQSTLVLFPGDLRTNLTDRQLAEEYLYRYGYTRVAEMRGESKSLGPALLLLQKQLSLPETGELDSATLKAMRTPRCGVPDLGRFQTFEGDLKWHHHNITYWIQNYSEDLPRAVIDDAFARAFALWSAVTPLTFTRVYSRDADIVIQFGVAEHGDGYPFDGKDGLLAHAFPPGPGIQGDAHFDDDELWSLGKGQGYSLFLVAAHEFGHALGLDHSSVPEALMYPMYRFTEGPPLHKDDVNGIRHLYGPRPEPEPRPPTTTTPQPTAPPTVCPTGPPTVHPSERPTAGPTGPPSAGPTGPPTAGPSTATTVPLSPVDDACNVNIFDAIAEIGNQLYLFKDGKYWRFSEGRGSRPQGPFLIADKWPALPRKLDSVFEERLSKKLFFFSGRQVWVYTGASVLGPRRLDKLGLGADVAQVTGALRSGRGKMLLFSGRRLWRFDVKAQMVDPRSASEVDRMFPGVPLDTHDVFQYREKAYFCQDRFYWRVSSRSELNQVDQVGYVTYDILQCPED
recombinant proMMP-9 lacking the FnII module and the HPX domain (P14780, form named): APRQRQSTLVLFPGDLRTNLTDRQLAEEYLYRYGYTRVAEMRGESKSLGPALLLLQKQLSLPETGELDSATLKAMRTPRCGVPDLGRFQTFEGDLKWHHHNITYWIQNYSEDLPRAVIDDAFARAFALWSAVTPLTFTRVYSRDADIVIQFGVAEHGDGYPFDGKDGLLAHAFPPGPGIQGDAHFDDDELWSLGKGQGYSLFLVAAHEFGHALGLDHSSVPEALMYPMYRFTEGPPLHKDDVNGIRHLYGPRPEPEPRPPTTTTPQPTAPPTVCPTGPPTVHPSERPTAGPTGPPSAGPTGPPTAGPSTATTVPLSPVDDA
recombinant proMMP-9 lacking the FnII module, the OG and the HPX domains (P14780, form named): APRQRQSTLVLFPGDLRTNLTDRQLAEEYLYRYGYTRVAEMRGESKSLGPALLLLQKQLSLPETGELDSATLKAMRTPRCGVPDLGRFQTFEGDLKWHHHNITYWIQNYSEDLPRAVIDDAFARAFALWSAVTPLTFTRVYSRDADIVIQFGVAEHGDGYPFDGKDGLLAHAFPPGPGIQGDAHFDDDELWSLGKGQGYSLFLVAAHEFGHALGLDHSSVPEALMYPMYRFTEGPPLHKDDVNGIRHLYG
UniProt P01033, residues 24-207: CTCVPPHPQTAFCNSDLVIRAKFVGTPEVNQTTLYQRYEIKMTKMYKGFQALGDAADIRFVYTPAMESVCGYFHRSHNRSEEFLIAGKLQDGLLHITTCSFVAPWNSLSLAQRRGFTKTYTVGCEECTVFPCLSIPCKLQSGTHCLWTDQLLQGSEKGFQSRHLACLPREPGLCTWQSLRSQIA

What was measured:
[1] = target: proMMP-9 purified from THP-1 cells (human (endogenous in THP-1)) (UniProt P14780); assay: co-purification on gelatin-Sepharose, SDS-PAGE; THP-1 conditioned medium, Q-Sepharose pass-through applied to gelatin-Sepharose; 28-30 kDa band beside the 92 kDa proMMP-9
SG peptide 13 (human) = target: T1, SG peptide 13 (human) (UniProt P10124); assay: peptide or protein array; 20-mer walk of the SG core protein on cellulose, two-residue shift; 8.8 ul of 11.2 ug/mL proMMP-9 in 10 mL blocking buffer, 1-4 h, room temperature; antibody against MMP-9; both purified
T1 sequence (peptide): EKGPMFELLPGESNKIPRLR

SG peptide 16 (human) = target: T2, SG peptide 16 (human) (UniProt P10124); assay: as above
T2 sequence (peptide): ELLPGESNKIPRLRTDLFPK

[2] = target: T3, purified chondroitin sulfate proteoglycan from unstimulated THP-1 cells, mainly serglycin (human (endogenous in THP-1)) (UniProt P10124); assay: in vitro reconstitution, complex isolated on Q-Sepharose, Western blotting; as the zymography set-up; samples reduced with 0.1 M DTT before electrophoresis, or unreduced with the gel incubated in 0.1 M DTT before blotting; antibody against MMP-9; both purified
T3 sequence (chain, chondroitin sulfate chains on serines of the eight Ser-Gly repeats (67-84)): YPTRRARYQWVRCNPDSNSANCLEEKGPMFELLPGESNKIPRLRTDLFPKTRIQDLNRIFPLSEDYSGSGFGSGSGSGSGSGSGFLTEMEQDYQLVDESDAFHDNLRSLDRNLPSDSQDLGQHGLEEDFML

[3] = target: T3, purified chondroitin sulfate proteoglycan from unstimulated THP-1 cells, mainly serglycin (human (endogenous in THP-1)); assay: in vitro reconstitution, complex isolated on Q-Sepharose, gelatin zymography; 0.05 uM proMMP-9 variant with 230 ug/mL CSPG/SG, 15 min to 24 h, 37 °C, 0.1 M HEPES pH 7.5, with or without 10 mM EDTA; Q-Sepharose washed with 6 M urea and 0.35 M NaCl, eluted with 1.5 M NaCl; SDS-stable and SDS-soluble complexes; both purified
[4] = target: recombinant proMMP-9 lacking the FnII module (human) (UniProt P14780); assay: SDS-PAGE, Western blotting and real-time gelatin zymography under non-reducing and reducing conditions; partly purified preparation or crude insect-cell media of the ΔFnII variants
[5] = target: T3, purified chondroitin sulfate proteoglycan from unstimulated THP-1 cells, mainly serglycin (human (endogenous in THP-1)); assay: in vitro reconstitution, complex isolated on Q-Sepharose, Western blotting; partly purified or crude insect-cell medium with the ΔFnII variants, mixed with 230 ug/mL purified CSPG/SG, 37 °C, 0.1 M HEPES pH 7.5; samples reduced or gel treated with DTT; antibody against MMP-9; only the target purified
[6] = target: recombinant proMMP-9 lacking the FnII module and the HPX domain (human) (UniProt P14780); assay: SDS-PAGE, Western blotting and real-time gelatin zymography under non-reducing and reducing conditions; partly purified preparation or crude insect-cell media of the ΔFnII variants
[7] = target: T3, purified chondroitin sulfate proteoglycan from unstimulated THP-1 cells, mainly serglycin (human (endogenous in THP-1)); assay: condition: approximately 3 to 5 times as much of these enzymes as used of the rpMMP-9ΔFnII deletion variant; in vitro reconstitution, complex isolated on Q-Sepharose, Western blotting; partly purified or crude insect-cell medium with the ΔFnII variants, mixed with 230 ug/mL purified CSPG/SG, 37 °C, 0.1 M HEPES pH 7.5; samples reduced or gel treated with DTT; antibody against MMP-9; only the target …
[8] = target: recombinant proMMP-9 lacking the FnII module, the OG and the HPX domains (human) (UniProt P14780); assay: SDS-PAGE, Western blotting and real-time gelatin zymography under non-reducing and reducing conditions; partly purified preparation or crude insect-cell media of the ΔFnII variants
SG peptide 21 (human) = target: T4, SG peptide 21 (human) (UniProt P10124); assay: peptide or protein array; 20-mer walk of the SG core protein on cellulose, two-residue shift; 8.8 ul of 11.2 ug/mL proMMP-9 in 10 mL blocking buffer, 1-4 h, room temperature; antibody against MMP-9; both purified
T4 sequence (peptide): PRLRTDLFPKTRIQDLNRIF

[9] = target: recombinant proMMP-9 lacking the OG and HPX domains (human) (UniProt P14780); assay: SDS-PAGE, Western blotting and gelatin zymography under non-reducing and reducing conditions; purified preparations; SDS-stable, reduction-sensitive homomultimer beside the monomer; both purified

For TIMP-1 (from UniProt P01033 24-207), the binding [1] was “binds”.

“proMMP-9 purified from THP-1 cells (from UniProt P14780 20-707) (enzyme)” was tested, and the binding (SG peptide 13 (human)) was “no binding (tested: 8.8 ul of 11.2 ug/mL proMMP-9 in 10 mL)”, the binding (SG peptide 16 (human)) was “no binding (tested: 8.8 ul of 11.2 ug/mL proMMP-9 in 10 mL)” and the binding [2] was “binds”. For the same substance, the binding [3] was “binds”.

For “recombinant full-length proMMP-9 (from UniProt P14780 20-707) (enzyme)”, the binding (SG peptide 13 (human)) was “no binding (tested: 8.8 ul of 11.2 ug/mL proMMP-9 in 10 mL)”, the binding (SG peptide 16 (human)) was “no binding (tested: 8.8 ul of 11.2 ug/mL proMMP-9 in 10 mL)” and the binding [3] was “binds”.

In the case of “recombinant proMMP-9 lacking the FnII module (from UniProt P14780 20-707) (enzyme)”, the binding [4] is reported as “binds” and the binding [5] is reported as “binds”.

With “recombinant proMMP-9 lacking the FnII module and the HPX domain (from UniProt P14780 20-515) (domain or fragment)” the binding [6] was “binds” and the binding [7] was “no binding”.

In the case of “recombinant proMMP-9 lacking the FnII module, the OG and the HPX domains (from UniProt P14780 20-444) (domain or fragment)”, the binding [8] is reported as “no binding” and the binding [7] is reported as “no binding”.

“recombinant proMMP-9 lacking the HPX domain (from UniProt P14780 20-515) (domain or fragment)” was tested, and the binding (SG peptide 13 (human)) was “no binding (tested: 8.8 ul of 11.2 ug/mL proMMP-9 in 10 mL)”, the binding (SG peptide 16 (human)) was “no binding (tested: 8.8 ul of 11.2 ug/mL proMMP-9 in 10 mL)” and the binding (SG peptide 21 (human)) was “no binding (tested: 8.8 ul of 11.2 ug/mL proMMP-9 in 10 mL)”. The binding [2] was “binds” and the binding [3] was “binds”.

“recombinant proMMP-9 lacking the OG and HPX domains (from UniProt P14780 20-444) (domain or fragment)” was tested, and the binding [9] was “no binding” and the binding [3] was “binds”.
